The data set deals with the molecule itself. Briefly: self-assembly in aqueous buffer, fibers seen by SEM.

B1: Ultrabithorax (Ubx) splicing isoform Ia, full length, N-terminally His-tagged (other)
chain: MNSYFEQASGFYGHPHQATGMAMGSGGHHDQTASAAAAAYRGFPLSLGMSPYANHHLQRTTQDSPYDASITAACNKIYGDGAGAYKQDCLNIKADAVNGYKDIWNTGGSNGGGGGGGGGGGGGAGGTGGAGNANGGNAANANGQNNPAGGMPVRPSACTPDSRVGGYLDTSGGSPVSHRGGSAGGNVSVSGGNGNAGGVQSGVGVAGAGTAWNANCTISGAAAQTAAASSLHQASNHTFYPWMAIAGKIRSDLTQYGGISTDMGKRYSESLAGSLLPDWLGTNGLRRRGRQTYTRYQTLELEKEFHTNHYLTRRRRIEMAHALCLTERQIKIWFQNRRMKLKKEIQAIKELNEQEKQAQAQKAAAAAAAAAAVQGGHLDQ
notes: Recombinant, from E. coli, pET19b; Self-assembles into fibrils, films and fibers; the number of copies is not defined; also called UbxIa; Ubx 1-380; not shown: N-terminal His-tag appended by the pET19b vector
Take B1: the binding result is recorded as “binds”.

The record behind these values is patent publication US20100143436A1 (BONDWELL TECHNOLOGIES, published 2010).
